No constants are given. Whether binding was seen depends on the method and setting. Some results given as binding are weak or reduced against the parent protein; the word gives no strength.
Biological target: T1, LONESOME HIGHWAY (LHW) (Arabidopsis thaliana) (UniProt Q9XIN0)
T1 sequence: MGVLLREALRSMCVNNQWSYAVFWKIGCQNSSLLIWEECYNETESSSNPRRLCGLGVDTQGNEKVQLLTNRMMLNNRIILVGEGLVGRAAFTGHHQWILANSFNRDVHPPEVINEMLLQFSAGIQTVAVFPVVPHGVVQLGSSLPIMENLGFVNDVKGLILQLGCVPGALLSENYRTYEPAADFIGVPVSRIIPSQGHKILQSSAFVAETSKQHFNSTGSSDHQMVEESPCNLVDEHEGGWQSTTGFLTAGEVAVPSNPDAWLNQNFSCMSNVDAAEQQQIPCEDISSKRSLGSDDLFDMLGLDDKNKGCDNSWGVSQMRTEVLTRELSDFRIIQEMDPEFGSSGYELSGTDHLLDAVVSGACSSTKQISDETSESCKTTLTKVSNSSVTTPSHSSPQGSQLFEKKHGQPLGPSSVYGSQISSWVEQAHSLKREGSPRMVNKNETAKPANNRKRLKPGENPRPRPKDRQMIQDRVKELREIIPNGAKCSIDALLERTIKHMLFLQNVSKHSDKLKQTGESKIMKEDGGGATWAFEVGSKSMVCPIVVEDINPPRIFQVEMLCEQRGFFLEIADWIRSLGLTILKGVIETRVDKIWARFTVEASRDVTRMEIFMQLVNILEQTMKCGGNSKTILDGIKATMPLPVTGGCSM
Assay: two-hybrid; Matchmaker Gold Yeast Two-Hybrid System; pGADT7 and pGBKT7 fusions; growth on SD -Leu -Trp -His -Ade with 3 mM 3AT, 30°C for 3 days

binding: binds
B1: SAC51 (protein, UniProt Q9FMF4 1-348)
chain: MPLDKRQRDLPLGLSPQACFKDIVGRSVLPRIPLPELGKLYAAKLQARCLQPPPFQSLLCSHDKESYGKRFSRSDMRSWCAAATTTTTPLGALESSQKRLLIFDQSGDQTRLLQCPFPLRFPSHAAAEPVKLSELQGIEKAFKEDGEEFHKSDGTESEMHEDTEEINALLYSDDDYDDDCESDDEVMSTGHSPYPNEGVCNKRELEEIDGPCKRQKLLDKVNNISDLSSLVGTESSTQLNGSSFLKDKKLPESKTISTKEDTGSGLSNEQSKKDKIRTALKILESVVPGAKGNEALLLLDEAIDYLKLLKRDLISTEVKNQSSTTHKSPILLLKETTWGTRNLQTDKA
